# Source: PubChem BioAssay AID1053208 (Peter MacCallum Cancer Centre, 2014)
# Screen: 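Find knock-downs that sensitise mouse osteosarcoma cells to doxorubicin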 (primary screen)
# System: mouse osteosarcoma cells, early-passage culture from an engineered mouse model of fibroblastic bone tumour
# Reagents: siRNA pool against mouse genes, 40 nM
# Time to read-out: about 120 h (48 h before drug, then 72 h with drug)
# Treatment: doxorubicin 100 nM for 72 h, roughly 30-40% inhibitory dose
# Measurement: 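Luminescent ATP signal taken as viability with or without 100 nM doxorubicin for 72 h; mean of two wells set against non-targeting siRNA and turned into robust z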
# Reading the numbers: viability z-score with doxorubicin and doxorubicin viability vs non-targeting: higher = more viable cells under doxorubicin; viability z-score without drug: higher = more viable cells with knock-down alone; z-score of drug to no-drug ratio: higher = less drug sensitisation by knock-down
# Active means: 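Called active if knock-down leaves viability unchanged without drug (z within -2 to 2) but lowers it with doxorubicin (z at or under -2)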
# In all, the deposit lists about 17,000 reagents; shown is a part drawn at random. 788 of all reagents (4.7%) were called active. 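Calls rest on z-score classes alone; an extra cut-off of viability at most 70% of control was not applied to them.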
Gene,combined z-score class,viability z-score with doxorubicin,viability z-score without drug,z-score of drug to no-drug ratio,doxorubicin viability vs non-targeting,Call
Zfp146,no change with or without drug,0,1.01,-0.56,0.94,inactive
Ipp,no change with or without drug,-0.22,-1.01,0.56,0.92,inactive
Taf5,no change with or without drug,-1.35,-1.52,-0.34,0.82,inactive
Kcna7,no change with or without drug,0,0.67,-0.34,0.94,inactive
6030448M23RIK,no change with or without drug,0.45,-0.51,1.01,0.98,inactive
Ube2h,no change with or without drug,-1.8,-1.18,-1.01,0.78,inactive
Dnajc15,no change with or without drug,-1.35,0.84,-1.8,0.82,inactive
Cntnap1,no change with or without drug,-0.9,-0.17,-0.79,0.86,inactive
Rasgef1b,high cell count with doxorubicin only,2.02,1.69,1.01,1.12,inactive
Chrm2,no change with or without drug,-1.35,0.67,-1.69,0.82,inactive
Or7d10,high cell count without drug only,0.56,2.19,-0.67,0.99,inactive
Satb2,no change with or without drug,-1.12,-0.84,-0.56,0.84,inactive
Upp1,no change with or without drug,-0.45,-1.01,0.34,0.9,inactive
C3,no change with or without drug,-0.67,-0.17,-0.45,0.88,inactive
Retreg3,no change with or without drug,0.34,1.01,-0.22,0.97,inactive
Slc5a5,no change with or without drug,0.34,1.18,-0.34,0.97,inactive
Wasf2,no change with or without drug,-0.79,-0.67,-0.22,0.87,inactive
Tbc1d10a,high cell count with and without drug,2.36,2.02,1.01,1.15,inactive
Mrc1,no change with or without drug,1.35,0,1.57,1.06,inactive
Usp16,no change with or without drug,-0.22,0.51,-0.45,0.92,inactive
Trpc5,no change with or without drug,0,0.84,-0.45,0.94,inactive
Mrpl53,no change with or without drug,-1.35,-1.18,-0.56,0.82,inactive
Lratd1,no change with or without drug,-1.24,0.84,-1.69,0.83,inactive
Pdrg1,no change with or without drug,-0.9,0.17,-0.9,0.86,inactive
Krt31,low cell count without drug only,-1.57,-3.37,1.01,0.8,inactive
Xylt1,no change with or without drug,0.9,0.67,0.56,1.02,inactive
Adam15,no change with or without drug,0.22,-0.17,0.45,0.96,inactive
Iapp,no change with or without drug,-1.12,-1.85,0.22,0.84,inactive
Srsf3,low cell count with and without drug,-2.92,-3.2,-1.01,0.68,inactive
AI987944,no change with or without drug,1.35,0.67,1.01,1.06,inactive
Fhl5,no change with or without drug,0.11,1.18,-0.56,0.95,inactive
Angptl6,no change with or without drug,-0.22,0.84,-0.67,0.92,inactive
Rab3a,no change with or without drug,-0.11,1.69,-1.01,0.93,inactive
Pycr2,no change with or without drug,-0.9,-1.18,0,0.86,inactive
Xkr5,no change with or without drug,-0.67,0.34,-0.79,0.88,inactive
Mylk,no change with or without drug,1.46,-0.17,1.8,1.07,inactive
Card6,no change with or without drug,0.34,0,0.45,0.97,inactive
Ndufaf3,no change with or without drug,0.34,-1.01,1.24,0.97,inactive
Abhd17c,no change with or without drug,-0.34,1.18,-1.01,0.91,inactive
Fgfr2,no change with or without drug,-0.45,-1.01,0.34,0.9,inactive
Cd209b,high cell count with doxorubicin only,2.25,0.67,1.91,1.14,inactive
Or51i2,no change with or without drug,-0.45,1.01,-1.01,0.9,inactive
Dcph1,no change with or without drug,1.57,1.18,0.9,1.08,inactive
Nfatc1,no change with or without drug,1.69,1.52,0.79,1.09,inactive
Isca1,no change with or without drug,-0.67,-1.01,0.11,0.88,inactive
Spam1,no change with or without drug,0,0.17,0,0.94,inactive
Kcnmb1,no change with or without drug,-1.91,-0.84,-1.35,0.77,inactive
Fam168a,no change with or without drug,0.11,0,0.22,0.95,inactive
Mrpl10,no change with or without drug,0.67,-1.01,1.57,1,inactive
Map3k14,no change with or without drug,-0.67,-1.85,0.79,0.88,inactive
